# Hit rate of the full screen: of about 400,000 compounds, about 13,000 (3.2%) were called active. This list was built around the results that the source calls inconclusive (neither active nor inactive); the mix of calls is not that of the screen. Calls come from the whole dose curve; as a rule, active = well fitted cell-killing curve with a large enough effect; inconclusive = small, poorly fitted or top-dose-only effect, or effect the other way; inactive = flat fitted curve, though single readings scatter. Potencies beside an inconclusive call are fits to weak or partial responses and may not hold up.
# Experiment: qHTS assay for MDR1-selective chemotherapeutics: Primary screen using the drug-selected MDR subline cells KB-V1; note: nearly all actives have a fitted effect of over 60% in size
# Details: KB-V1 MDR cells viability, CellTiter-Glo, 72 h; activity change, negative = cytotoxicity: at 46.1 µM (top of the series)
# Procedure, shortened: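 Potencies derive from concentration-effect curves fitted to normalized luminescence (CellTiter-Glo) of KB-V1 cells treated for 72 h at 37 degrees C in phenol-red-free DMEM containing 10% FBS.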
# % is set by controls: 0 for no effect and ±100 for the full control effect; potency is the fitted concentration of half-maximal effect.
SMILES,Potency,"activity change, negative = cytotoxicity"
Cc1ccc(Cn2cc(C=O)c3ccccc32)cc1,"inconclusive: 32.6 µM [cytotoxic, single point]",–
CNC(=O)Oc1ccc(-c2cn3cc(Cl)ccc3n2)cc1,"inconclusive: 13 µM [cytotoxic, partial curve, poor fit]",–
COc1ccc(NC(=O)N2C[C@@H]3C[C@@H](C2)c2cccc(=O)n2C3)c(OC)c1,inactive,–
O=c1[nH]c2ccccc2n1C1CCN(C(c2cc3ccccc3o2)c2nnnn2Cc2ccccc2)CC1 (stereo not given),"inconclusive: 29.1 µM [cytotoxic, single point]",–
Cn1c(O)c(C(=Nc2ccccc2)SCc2ccc(Cl)cc2)c(=O)n(C)c1=O,active: 5.17 µM,–
CC1CCN(C(CC(=O)c2ccccc2)C(=O)c2ccccc2)CC1 (stereo not given),inactive,–
CC1=CC(=O)NP(=O)(Oc2ccc3ccccc3c2)N1 (stereo not given),"inconclusive: 32.6 µM [rising, single point]",–
COc1cc(O)cc2c1C(=O)OC(C)CCCC(=O)CCC/C=C\2 (stereo not given),"inconclusive: 11.6 µM [cytotoxic, partial curve, poor fit]",–
CC1CCN2c3nc4ccccn4c(=O)c3CC3(C(=O)N(C)C(=O)N(C)C3=O)C2C1 (stereo not given),active: 7.31 µM,–
Cc1c(C(=O)N2CCC3(CC2)OCCO3)sc2ncnc(N3CCc4ccccc4C3)c12,"inconclusive: 16.4 µM [cytotoxic, partial curve]",–
Cc1ccc2cc(C=C(C#N)C#N)c(Cl)nc2c1,"inconclusive: 29.1 µM [cytotoxic, single point]",–
Cc1c(C=O)c2ccccc2n1Cc1ccccc1,inactive,–
C/C(=N\NC(=O)c1ccccc1)c1c(O)n(C2CCCCC2)c(=O)[nH]c1=O,inactive,–
C=CCn1c(O)c(C=NCCN2CCNCC2)c(=O)[nH]c1=O,inactive,–
CCOc1ccccc1OCC(=O)Nc1ccc(Cl)cc1C(=O)c1ccccc1,"inconclusive: 7.31 µM [cytotoxic, partial curve, poor fit]",–
CCOc1ccc(CN(CCCl)CCCl)cc1C(=O)OC,"inconclusive: 23.1 µM [cytotoxic, single point]",–
c1ccc(-c2ccc3c(c2)CNCc2cnnn2-3)cc1,"inconclusive: 16.4 µM [cytotoxic, partial curve, poor fit]",–
N#Cc1cn(C2OC(CO)C(O)C2O)c2ncnc(N)c12 (stereo not given),"inconclusive: 0.0073 µM [cytotoxic, full curve, poor fit]",–
CCOC(=O)c1c(/N=C/C2C(=O)NC(=O)NC2=O)sc2c1CCC2,inactive,–
COc1ccccc1N1C(=O)NC(=O)/C(=C/c2ccc([N+](=O)[O-])s2)C1=O,inactive,–
CCC1(CCCC(=O)c2ccc(F)cc2)C(=O)NC(=S)NC1=O,"inconclusive: 20.6 µM [cytotoxic, single point]",–
CCN1CCN(c2ccc(N)c(C)c2)CC1,inactive,–
CCOC(=O)[C@]12Cc3c(cc(OC)c(OC)c3OC)[C@H]1N(C1CCCCC1)C(=O)c1ccccc12,"inconclusive: 4.11 µM [cytotoxic, full curve, poor fit]",–
Cn1c(O)c(Cc2cccc(Cl)c2Cl)c(=O)n(C)c1=O,"inconclusive: 14.6 µM [rising, partial curve, poor fit]",–

# Pulled by structure from above (4):
SMILES,Potency,"activity change, negative = cytotoxicity"
CC1CCN(C(CC(=O)c2ccccc2)C(=O)c2ccccc2)CC1 (stereo not given),inactive,–
CCOC(=O)c1c(/N=C/C2C(=O)NC(=O)NC2=O)sc2c1CCC2,inactive,–
CC1CCN2c3nc4ccccn4c(=O)c3CC3(C(=O)N(C)C(=O)N(C)C3=O)C2C1 (stereo not given),active: 7.31 µM,–
CCC1(CCCC(=O)c2ccc(F)cc2)C(=O)NC(=S)NC1=O,"inconclusive: 20.6 µM [cytotoxic, single point]",–

# The list goes on:

SMILES,Potency,"activity change, negative = cytotoxicity"
COc1ccc(-n2nnnc2C(c2ccnc3ccccc23)N2CCC(n3c(=O)[nH]c4ccccc43)CC2)cc1 (stereo not given),"inconclusive: 18.4 µM [cytotoxic, single point]",–
COc1ccc(C(=O)C2CCCN(Cc3cnc(C)s3)C2)c(OC)c1 (stereo not given),–,inconclusive: -52.8%
O=C1NC(=O)C2(Cc3ccccc3N3CCOCC32)C(=O)N1c1ccccc1 (stereo not given),"inconclusive: 29.1 µM [cytotoxic, single point]",–
CC(=O)OC[C@]12CCC(C)=C[C@H]1O[C@@H]1[C@H](O)[C@@H](OC(C)=O)[C@@]2(C)[C@]12CO2,"inconclusive: 0.0052 µM [cytotoxic, full curve, poor fit]",–
C[C@]12CC[C@H](O)CC1=CC[C@@H]1[C@@H]2CC[C@]2(C)C(=O)CC[C@@H]12,"inconclusive: 25.9 µM [cytotoxic, single point]",–
CC[C@H](C)/C=C(C)/C=C/C1=CC2=C(Cl)C(=O)[C@](C)(OC(C)=O)C(=O)C2=CO1,"inconclusive: 18.4 µM [rising, single point]",–
CCCCCn1c(=O)c(C(=O)NCCc2ccccc2)c(O)c2ccccc21,"inconclusive: 29.1 µM [cytotoxic, single point]",–
c1ccc(-c2nc(N3CCOCC3)s[n+]2-c2ccccc2)cc1,"inconclusive: 20.6 µM [cytotoxic, partial curve]",–
Brc1ccc(C2N3CCCN23)cc1 (stereo not given),inactive,–
O=C(c1ccco1)c1cn(Cc2ccccc2)c2ccccc12,"inconclusive: 14.6 µM [cytotoxic, partial curve, poor fit]",–
O=C(Nc1ccccc1)N1CCC2(CC1)OCCO2,inactive,–
COC(=O)c1cn(C(=O)c2cccc3ccccc23)c2ccccc12,"inconclusive: 29.1 µM [cytotoxic, single point]",–
OCC[N+]12CCC(CC1)C(C(O)(c1ccccc1)c1ccccc1)C2 (stereo not given),inactive,–
COC(=O)C1=C(c2ccc(OC)c(OC)c2)C[C@@H]2CC[C@H]1N2C(=O)NCCc1ccccc1,inactive,–
Cc1ccc(S(=O)(=O)Nc2cc(C(=O)N3CCC4(CC3)OCCO4)ccc2N2CCCCC2)cc1,"inconclusive: 32.6 µM [cytotoxic, single point]",–
COC(=O)C(O)(c1ccc(NC(=S)NC(=O)c2ccc(Cl)cc2Cl)cc1)C(F)(F)F (stereo not given),active: 18.4 µM,–
CC1=NN(c2ccccc2)C(=O)/C1=C/c1c(O)[nH]c(=S)[nH]c1=O,"inconclusive: 18.4 µM [cytotoxic, single point]",–
Cc1nc2ccccc2c(=O)n1/N=C/c1cc(Br)cc(Br)c1O,inactive,–
COc1ccc(C(=O)O/N=C(/C(N)=O)P(=O)(OC(C)C)OC(C)C)cc1,inactive,–
O=P(OC1=CCCCC1)(c1ccccc1)c1ccccc1,inactive,–
O=c1c2ccccc2nc(/C=C/c2ccc([N+](=O)[O-])o2)n1-c1ccc(O)cc1,"inconclusive: 18.4 µM [cytotoxic, partial curve]",–
CC(Cc1ccccc1Sc1ccccc1)N(C)C (stereo not given),inactive,–
CCN(CC(=O)Nc1ccc(C#N)c(Cl)c1)CC(=O)NC(C)(C)C,"inconclusive: 18.4 µM [cytotoxic, partial curve, poor fit]",–

SMILES,Potency,"activity change, negative = cytotoxicity"
COc1cccc(C(=O)C2CN(C)CC2c2ccc(Cl)cc2)c1 (stereo not given),"inconclusive: 23.1 µM [cytotoxic, single point]",–
COc1ccc(C(=O)OC2C[C@H]3CC[C@@H](C2)N3O)cc1OC (stereo not given in full),inactive,–
NCCc1ccc(OCc2ccccc2)c(OCc2ccccc2)c1,active: 23.1 µM,–
CCN(CC)C(=O)N[C@H]1C[C@@H]2c3cccc4[nH]cc(c34)C[C@H]2N(C)C1,"inconclusive: 29.1 µM [cytotoxic, single point]",–
C[C@@H]1O[C@@H](O[C@H]2C[C@@H](O)[C@]3(CO)[C@@H]4C(CC[C@]3(O)C2)[C@@]2(O)CC[C@H](C3COC(=O)C3)[C@@]2(C)C[C@H]4O)[C@H](O)[C@H](O)[C@H]1O (stereo not given in full),active: 1.84 µM,–
COc1ccc(-c2cc(=NCCC(=O)O)c3cc(C)ccc3o2)cc1,inactive,–
COC(=O)C1=C(c2ccc(S(C)(=O)=O)cc2)C[C@@H]2CC[C@H]1N2C(=O)NC1CCCCC1,"inconclusive: 18.4 µM [rising, single point]",–
CCC(c1ccc(C)cc1)N1C(=O)C2C3CCC(O3)C2C1=O (stereo not given),"inconclusive: 29.1 µM [cytotoxic, single point]",–
O=C1NC(=O)[C@]2(Cc3ccccc3N3CCN(c4ccccc4)CC32)C(=O)N1c1ccccc1 (stereo not given in full),"inconclusive: 20.6 µM [cytotoxic, partial curve]",–
COCCn1c(O)c(/C=N/NC(=O)CSC(=S)N2CCCC2)c(=O)[nH]c1=S,"inconclusive: 29.1 µM [rising, single point]",–
COC(=O)C1=C(c2cc3ccccc3s2)C[C@@H]2CC[C@H]1N2C(=O)NCc1ccccc1,inactive,–
CC(=NCCC1=CCCCC1)c1c(O)n(C)c(=O)n(C)c1=O,"inconclusive: 10.3 µM [cytotoxic, partial curve]",–
Cc1ccccc1CN1Cc2cnnn2-c2ccccc2C1C#N (stereo not given),"inconclusive: 29.1 µM [cytotoxic, single point]",–
CN1CCN(c2cn[nH]c(=O)c2Cl)CC1,"inconclusive: 29.1 µM [cytotoxic, single point]",–
COc1cc2nc(CN3CC=C(c4ccccc4)CC3)[nH]c(=O)c2cc1OC,"inconclusive: 2.06 µM [cytotoxic, full curve, poor fit]",–
COC(=O)C1=C(c2ccc(F)cc2OCc2ccccc2)C[C@@H]2CC[C@H]1N2C(=O)N1CCC(O)(c2ccc(Cl)cc2)CC1,"inconclusive: 29.1 µM [cytotoxic, single point]",–
O=C(COc1ccc(Br)cc1)N1CCN(C2CCCC2)CC1,"inconclusive: 13 µM [cytotoxic, partial curve]",–
COc1ccccc1N1CCN(Cc2ccc3c(c2)OCO3)CC1,inactive,–
O=C(c1ccc(C(F)(F)F)cc1)C1CCCN(Cc2ccc(CO)o2)C1 (stereo not given),active: 18.4 µM,–
COc1cc(-c2ccc(N)c(OC)c2)ccc1N,inactive,–
CCN1C(=O)C(=C/C=C/c2ccco2)C(=O)N(CC)C1=S,inactive,–
O=C(c1cn(Cc2ccccc2)c2ccccc12)C1CC1,"inconclusive: 1.64 µM [cytotoxic, partial curve, poor fit]",–
